Results taken from PubChem BioAssay AID1259415 (National Center for Advancing Translational Sciences (NCATS), 2018).
About 18,000 (4.4%) of roughly 410,000 compounds were called active. The inconclusive results got no clear call from the source; some entries with a clear call stand among them for comparison. No stated cut-off is given here; in the data, active means activity change below about -60%; inconclusive means no clear call, values can overlap the other calls; inactive means above about -39%.

Assay: qHTS Assay for inhibitors of the human cytomegalovirus (HCMV)
Settings: HFF cells, HCMV-luciferase reporter, 72 h; at 57.5 µM; stronger effect = lower value
Procedure, shortened: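 HFF cells seeded 16 h at 37C, treated with compounds, infected with luciferase-reporter HCMV at MOI 1 PFU/cell; luciferase read at 72 h post infection, normalized to buffer-only and Salinomycin controls.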
On the % scale 0 is the no-effect control and ±100 the full control effect.

| Compound | activity change, negative = inhibition |
| --- | --- |
| COc1ccc(C)cc1NC(=S)NC(C)c1ccc(OC)c(OC)c1 (stereo not drawn) | inconclusive: -47.3% |
| CCOC(=O)c1c(-c2ccc(OC)cc2)oc2cc(Br)c(O)cc12 | inconclusive: -54.6% |
| COCCN(CCOC)Cc1c(O)ccc2c1O/C(=C\c1ccc(C)o1)C2=O | active: -88.5% |
| COc1cccc(N2CCN(C(=O)c3ccc4c(Cl)c5c(nc4c3)CCCC5)CC2)c1 | active: -75.5% |
| COc1ccc(-c2c[n+]3c(n2-c2ccccc2)SCC3)cc1 | active: -79.7% |
| COc1cc2c(cc1[N+](=O)[O-])-c1ccc([N+](=O)[O-])cc1C2 | active: -67.8% |
| CC(C)CNC(=O)c1cc([N+](=O)[O-])ccc1N1CCCCC1 | inconclusive: -54.9% |
| O=C(c1cccs1)N(Cc1ccco1)c1nc(-c2ccc(F)cc2)cs1 | inactive: -25.4% |
| CC(C)c1ccc(CNc2nc(NCC3CC3)nc3ccsc23)cc1 | active: -61.9% |
| Cc1cc(C(=O)N/N=C/c2ccc(N(C)C)cc2)c2ccccc2n1 | inactive: 2.61% |
| CC(C)C[C@H](NC(=O)N1CC(=O)Nc2ccccc21)C(=O)N[C@H](Cc1ccccc1)C(=O)O | inconclusive: -40.4% |
| N#CC1(NC(=O)CSc2nnc(-c3ccccc3F)o2)CCCCC1 | inconclusive: -45.1% |
| Cc1[nH]c2ccc(F)cc2c1CCN(Cc1cccnc1)C(=S)Nc1ccc(F)cc1 | inactive: -3.57% |
| Fc1ccc(N2CCN(c3nnnn3-c3ccccc3)CC2)cc1 | inconclusive: -48.3% |
| c1ccc(CCNc2ncnc3sccc23)nc1 | inconclusive: -59.8% |
| CCCN1CCN(C(=O)CCn2c(=O)c3cccn3c3cccnc32)CC1 | inactive: 0% |
| CCOC(=O)c1c(C)n(C)c2cc(-c3ccc(C)cc3)c(O)cc12 | inconclusive: -54.6% |
| COc1cccc(CNc2nc3cc(-c4cnn(Cc5ccccc5)c4)sc3c(=O)n2C)c1 | active: -82.1% |
| O=C(OCC(=O)N1CCCc2ccccc21)c1cncc(Br)c1 | inconclusive: -48.4% |
| COC(=O)Cc1nnn2c1[C@H](C)[C@H](c1ccccc1Br)OC[C@H](C)C2 | inactive: 0.538% |
| C/C(=N\Nc1ccc(F)cc1)c1ccncc1 | inactive: -7.66% |
| COc1ccc(S(=O)(=O)NC2CC(C)(C)NC(C)(C)C2)cc1C(C)C | inconclusive: -42.3% |

In the list so far, two have a nitro group on carbon:

| Compound | activity change, negative = inhibition |
| --- | --- |
| COc1cc2c(cc1[N+](=O)[O-])-c1ccc([N+](=O)[O-])cc1C2 | active: -67.8% |
| CC(C)CNC(=O)c1cc([N+](=O)[O-])ccc1N1CCCCC1 | inconclusive: -54.9% |

(cont.)

| Compound | activity change, negative = inhibition |
| --- | --- |
| C=CC(=O)Nc1cccc(Oc2nc(Nc3ccc(N4CCN(C)CC4)cc3OC)ncc2Cl)c1 | inconclusive: -59.4% |
| Cc1ccc(C(=O)Nc2cc(-c3nc4cc(Cl)ccc4o3)ccc2C)c(C)c1 | inconclusive: -53.6% |
| COc1ccc(Cn2c(CNS(=O)(=O)c3ccc(Cl)s3)nc3cccnc32)cc1 | inconclusive: -43.1% |
| CS(=O)(=O)NCC(c1cccnc1)N1CCN(c2ccc(F)cc2)CC1 (stereo not drawn) | inactive: -18.7% |
| Cc1cc(C)cc(-n2ncc3c2CCCC3NC(=O)c2cc(C)oc2C)c1 (stereo not drawn) | inconclusive: -48.4% |
| O=C(CCc1ccc(Oc2cc([N+](=O)[O-])cc([N+](=O)[O-])c2)cc1)NC1CCCC1 | inconclusive: -51.4% |
| COC(=O)c1ccc(-n2c(C)cc(C(=O)COC(=O)CNS(=O)(=O)c3ccc(C)cc3)c2C)cc1 | inactive: -0.518% |
| Cc1cc([N+](=O)[O-])nn1CCCC(=O)Nc1ccc2c(c1)OCO2 | inconclusive: -41.2% |
| COc1cccc(-c2nc(C(N)=O)c3[nH]c(=O)n(-c4cccc(Cl)c4)c3n2)c1OC | inconclusive: -44.8% |
| CC(C)c1ccc(C(=O)CC2(O)C(=O)N(CCc3ccccc3)c3ccc(Cl)cc32)cc1 (stereo not drawn) | active: -105% |
| Cc1cc2ccccn2c1C(=O)c1ccc([N+](=O)[O-])o1 | active: -66.1% |
| COc1ccccc1OCCOCCOc1ccc(C)cc1Br | inconclusive: -57.2% |
| CC(=O)Nc1ccc(NC(=O)CC2CCCC2)cc1 | inactive: -33.3% |
| O=c1cc(-c2ccc(O)cc2)oc2ccc3ccccc3c12 | active: -86.1% |
| CCc1nc2c(OCc3ccccc3)cccn2c1N(C)C(=O)c1ccco1 | inconclusive: -53.1% |
| O=S(=O)(c1ccc(F)c(F)c1)N1CCN(CCc2ccccc2)CC1 | inconclusive: -42.4% |
| CC1=NNC(=O)C1CCC(=O)N/N=C\c1ccc(Cl)c(Cl)c1 (stereo not drawn) | inconclusive: -44.6% |
| COCCNc1nc(Nc2ccc(Cl)cc2F)c2sccc2n1 | inconclusive: -48.3% |
| Cc1ccc(NC(=O)CSc2nc(=O)n(CCCN3CCOCC3)c3c2CCCC3)cc1 | inactive: -18.9% |
| COc1ccc(C2(C(=O)Nc3cc(C)on3)CCOCC2)cc1 | inconclusive: -44.1% |
| CN(CC(=O)N/N=C/c1ccc(F)cc1)S(=O)(=O)c1ccccc1 | inactive: -6.09% |
